Structures can show the parent of a compound that is named as a salt. This is one part of the list. Single values are uncertain, as repeats are few or missing.
How the values were obtained:
Test in all cases: reduction in cell viability relative to untreated/vehicle; higher = more growth inhibition
Conditions in all cases: 200 nM; 72 h
[1] = tested on: M229P (parental melanoma line)
[2] = tested on: M229R (matched melanoma line resistant to BRAF inhibitors)
[3] = tested on: M238P (parental melanoma line)
[4] = tested on: M238R (matched melanoma line resistant to BRAF inhibitors)
[5] = tested on: M249P (parental melanoma line)
[6] = tested on: M249R (matched melanoma line resistant to BRAF inhibitors)
[7] = tested on: UACC62P (parental melanoma line)
[8] = tested on: UACC62R (matched melanoma line resistant to BRAF inhibitors)

Structure (SMILES) | reduction in cell viability [1] [%] | reduction in cell viability [2] [%] | reduction in cell viability [3] [%] | reduction in cell viability [4] [%] | reduction in cell viability [5] [%] | reduction in cell viability [6] [%] | reduction in cell viability [7] [%] | reduction in cell viability [8] [%]
CNC[C@H](O)c1ccc(O)c(O)c1 [Epinephrine] | < 0 | < 0 | < 0 | < 0 | < 0 | < 0 | < 0 | < 0
CC#CCn1c(N2CCC[C@@H](N)C2)nc2c1c(=O)n(Cc1nc(C)c3ccccc3n1)c(=O)n2C [Linagliptin] | < 0 | < 0 | < 0 | < 0 | < 0 | < 0 | < 0 | < 0
CC(C)[C@H](O)C(=O)N[C@@H](C)C(=O)N[C@@H]1C(=O)N(C)CCc2ccccc21 [Semagacestat] | < 0 | < 0 | < 0 | < 0 | < 0 | < 0 | 19.1 | < 0
CCOC(=O)CN[C@@H](C(=O)N1CC[C@H]1C(=O)NCc1ccc(/C(N)=N\O)cc1)C1CCCCC1 [Ximelagatran] | < 0 | < 0 | < 0 | < 0 | < 0 | 4.88 | 4.92 | < 0
CC(C)C(=O)Oc1ccc(CO)cc1[C@H](CCN(C(C)C)C(C)C)c1ccccc1 [Fesoterodine fumarate] | < 0 | < 0 | < 0 | < 0 | < 0 | < 0 | < 0 | < 0
O=C(c1cc(Cc2n[nH]c(=O)c3ccccc23)ccc1F)N1CCN(C(=O)C2CC2)CC1 [Olaparib] | < 0 | < 0 | < 0 | < 0 | < 0 | < 0 | < 0 | < 0
COC(=O)Nc1ccc(-c2nc(N3CCOCC3)c3cnn(C4CCN(C(=O)OC)CC4)c3n2)cc1 | < 0 | < 0 | < 0 | 0.81 | < 0 | 24.3 | < 0 | < 0
CN(C)C/C=C/C(=O)Nc1cc2c(Nc3ccc(F)c(Cl)c3)ncnc2cc1O[C@H]1CCOC1 [Afatinib] | < 0 | < 0 | < 0 | < 0 | < 0 | < 0 | < 0 | < 0
Cc1ccccc1C(OCCN(C)C)c1ccccc1 (stereo unspecified) [Orphenadrine hydrochloride] | < 0 | < 0 | < 0 | < 0 | < 0 | < 0 | < 0 | < 0
Fc1ccc(Cl)cc1-c1nc(Nc2ccncc2)c2nccnc2n1 | < 0 | < 0 | < 0 | < 0 | < 0 | < 0 | 1.83 | < 0
COc1cc(OC2CCN(C)CC2)ccc1Nc1ncc2c(n1)n(C1CCCC1)c(=O)n2C | < 0 | < 0 | < 0 | < 0 | < 0 | < 0 | < 0 | < 0
NC[C@H]1O[C@H](O[C@H]2[C@H](O)[C@@H](O[C@H]3O[C@H](CO)[C@@H](O)[C@H](N)[C@H]3O)[C@H](N)C[C@@H]2N)[C@H](N)C[C@@H]1O [Tobramycin] | < 0 | < 0 | < 0 | < 0 | < 0 | 4.74 | < 0 | < 0
CCCCCCCCCCCCc1ccc(S(=O)(=O)Nc2nncs2)cc1 | < 0 | < 0 | < 0 | < 0 | < 0 | < 0 | 2.12 | < 0
NC(CO)(CO)CCc1ccc(Sc2cccc(OCc3ccccc3)c2)cc1Cl | < 0 | < 0 | < 0 | < 0 | < 0 | < 0 | 4.7 | < 0
CC(C)c1ccc(Cn2ccc3c4c(N)nc(NC5CC5)nc4ccc32)cc1 | 23.9 | 48.1 | 80.9 | 51.4 | 54.4 | 43.1 | 58.5 | 71.6
Cc1cc(C(C)(C)C)c(O)c(C)c1CC1=NCCN1 [Oxymetazoline] | < 0 | 33.7 | 6.98 | < 0 | 2.25 | 6.11 | < 0 | < 0
C[C@@H]1CCO[C@H]2Cn3cc(C(=O)NCc4ccc(F)cc4F)c(=O)c(O)c3C(=O)N12 [Dolutegravir] | < 0 | < 0 | < 0 | < 0 | < 0 | < 0 | < 0 | < 0
COCCCOc1ccnc(C[S+]([O-])c2nc3ccccc3[nH]2)c1C (stereo unspecified) [Rabeprazole] | < 0 | < 0 | < 0 | < 0 | < 0 | < 0 | < 0 | < 0
CN(C)Cc1ccc(-c2nc3cccc4c3n2CCNC4=O)cc1 | < 0 | < 0 | < 0 | < 0 | < 0 | 0.9 | < 0 | < 0
Cc1noc(-c2ccc(CSCCC(=O)O)cc2)c1NC(=O)OC(C)c1ccccc1Cl (stereo unspecified) | < 0 | < 0 | < 0 | < 0 | < 0 | 2.54 | < 0 | < 0
COc1cc2c(cc1O)CC[C@@H]1[C@@H]2CC[C@]2(C)[C@@H](O)CC[C@@H]12 [2-Methoxyestradiol] | < 0 | 21.7 | 12.4 | < 0 | 1.15 | 25 | 24.4 | 8.08

Reprinted at random: three entries already listed
Structure (SMILES) | reduction in cell viability [1] [%] | reduction in cell viability [2] [%] | reduction in cell viability [3] [%] | reduction in cell viability [4] [%] | reduction in cell viability [5] [%] | reduction in cell viability [6] [%] | reduction in cell viability [7] [%] | reduction in cell viability [8] [%]
C[C@@H]1CCO[C@H]2Cn3cc(C(=O)NCc4ccc(F)cc4F)c(=O)c(O)c3C(=O)N12 [Dolutegravir] | < 0 | < 0 | < 0 | < 0 | < 0 | < 0 | < 0 | < 0
CCCCCCCCCCCCc1ccc(S(=O)(=O)Nc2nncs2)cc1 | < 0 | < 0 | < 0 | < 0 | < 0 | < 0 | 2.12 | < 0
NC[C@H]1O[C@H](O[C@H]2[C@H](O)[C@@H](O[C@H]3O[C@H](CO)[C@@H](O)[C@H](N)[C@H]3O)[C@H](N)C[C@@H]2N)[C@H](N)C[C@@H]1O [Tobramycin] | < 0 | < 0 | < 0 | < 0 | < 0 | 4.74 | < 0 | < 0

Continuation:

Structure (SMILES) | reduction in cell viability [1] [%] | reduction in cell viability [2] [%] | reduction in cell viability [3] [%] | reduction in cell viability [4] [%] | reduction in cell viability [5] [%] | reduction in cell viability [6] [%] | reduction in cell viability [7] [%] | reduction in cell viability [8] [%]
Nc1ccn([C@@H]2CS[C@H](CO)O2)c(=O)n1 [Lamivudine] | < 0 | < 0 | < 0 | < 0 | < 0 | < 0 | < 0 | < 0
N#Cc1ccc(NC(=O)Nc2ccccc2Br)c2n[nH]nc12 | < 0 | < 0 | < 0 | < 0 | < 0 | < 0 | 2.58 | < 0
O=C(CCCCCCNC(=O)c1cnc(N(c2ccccc2)c2ccccc2)nc1)NO | < 0 | < 0 | < 0 | < 0 | < 0 | < 0 | < 0 | < 0
CCN(CC)CCCCNc1ncc2cc(-c3cc(OC)cc(OC)c3)c(NC(=O)NC(C)(C)C)nc2n1 | < 0 | < 0 | < 0 | < 0 | < 0 | < 0 | < 0 | < 0
Cc1ccc(O)c([C@H](CCN(C(C)C)C(C)C)c2ccccc2)c1 [Tolterodine tartrate] | < 0 | < 0 | < 0 | < 0 | < 0 | < 0 | < 0 | < 0
NS(=O)(=O)c1cc(C(=O)O)c(NCc2ccco2)cc1Cl [Furosemide] | < 0 | 2.85 | < 0 | < 0 | < 0 | < 0 | 9.49 | < 0
NC1(Cc2ccc(Cl)cc2)CCN(c2ncnc3[nH]ccc23)CC1 | < 0 | < 0 | < 0 | < 0 | < 0 | < 0 | < 0 | < 0
COc1ccc(-c2oc3c(CC=C(C)C)c(O)cc(O)c3c(=O)c2O)cc1 [Icaritin] | < 0 | < 0 | < 0 | < 0 | < 0 | < 0 | < 0 | < 0
C[C@H]1O[C@H](O[C@H]2[C@H](O)[C@@H](O)[C@@H](O[C@H]3[C@H](O)[C@@H](O)C(O)O[C@@H]3CO)O[C@@H]2CO)[C@H](O)[C@@H](O)[C@@H]1N[C@H]1C=C(CO)[C@@H](O)[C@H](O)[C@H]1O (stereo partly specified) [Acarbose] | < 0 | 1.04 | < 0 | < 0 | < 0 | 1.22 | < 0 | < 0
COc1nc(C)nc(Cl)c1NC1=NCCN1 [Moxonidine hydrochloride hydrate] | < 0 | < 0 | < 0 | < 0 | < 0 | < 0 | < 0 | < 0
Cc1cccc(-c2nn(C(=S)Nc3ccccc3)cc2-c2ccnc3ccccc23)n1 | < 0 | < 0 | < 0 | 9.04 | < 0 | < 0 | < 0 | < 0
CC(C)OC(=O)C(C(=O)OC(C)C)=C1SC=CS1 [Malotilate] | < 0 | < 0 | < 0 | < 0 | < 0 | < 0 | 2.93 | < 0
C[C@]12CC[C@@H]3c4ccc(O)cc4CC[C@H]3[C@@H]1C[C@@H](O)[C@@H]2O [Estriol] | < 0 | < 0 | < 0 | < 0 | < 0 | < 0 | < 0 | < 0
O=C(O)/C=C/c1ccc(O)c(O)c1 [Caffeic acid] | < 0 | < 0 | < 0 | < 0 | < 0 | < 0 | < 0 | < 0
COC(=O)[C@]12CCC(C)(C)C[C@H]1[C@H]1C(=O)C=C3[C@@]4(C)C=C(C#N)C(=O)C(C)(C)[C@@H]4CC[C@@]3(C)[C@]1(C)CC2 [Bardoxolone methyl] | < 0 | < 0 | 9.68 | < 0 | 20.9 | 19.8 | 5.05 | 4.61
C[C@H](CCC(=O)O)[C@H]1CC[C@H]2[C@@H]3C[C@H](O)[C@@H]4C[C@H](O)CC[C@]4(C)[C@H]3CC[C@]12C [Hyodeoxycholic acid (HDCA)] | < 0 | < 0 | < 0 | < 0 | < 0 | 6.02 | < 0 | < 0
CNC(=O)c1cc(Oc2ccc(NC(=O)Nc3ccc(Cl)c(C(F)(F)F)c3)cc2)ccn1 [Sorafenib] | < 0 | < 0 | < 0 | < 0 | < 0 | < 0 | < 0 | < 0
O=c1ccn([C@@H]2O[C@H](CO)[C@@H](O)[C@@H]2F)c(=O)[nH]1 [1-(2 -Deoxy-2 -fluoro-b-D-arabinofuranosyl)uracil] | < 0 | < 0 | < 0 | < 0 | < 0 | < 0 | < 0 | < 0
CC1(C)CC(=O)c2c(C(F)(F)F)nn(-c3ccc(C(N)=O)c(N[C@H]4CC[C@H](O)CC4)c3)c2C1 | 56.1 | 50 | 61.5 | 62.3 | 40 | 39.1 | 78.6 | 56.5
CC(C)(O)[C@H]1CC[C@@](C)([C@H]2[C@@H](O)C[C@@]3(C)[C@@H]4C[C@H](O[C@@H]5O[C@H](CO)[C@@H](O)[C@H](O)[C@H]5O)[C@H]5C(C)(C)[C@@H](O[C@@H]6OC[C@@H](O)[C@H](O)[C@H]6O)CC[C@@]56C[C@@]46CC[C@]23C)O1 [Astragaloside A] | < 0 | < 0 | < 0 | < 0 | < 0 | < 0 | < 0 | < 0
CN(C)CCc1c[nH]c2ccc(C[C@H]3COC(=O)N3)cc12 [Zolmitriptan] | < 0 | < 0 | < 0 | < 0 | < 0 | 2.03 | 3.5 | < 0

Source: the supplement of paper PMC9015667
